According to patent US6890944B2, “Organic acid salt of amlodipine” (priority 2002, dated 2005):
Where a name gives a salt, the structure may show the parent alone. At least one compound was matched to its structure with a doubt left.

Experiment: Test for light stability: aqueous solutions stored at 25° C. for 4 weeks exposed to sunlight (HPLC)
Type: physicochemical
Conditions: aqueous solution, Initial; Hydrochloride
Method: The resulting aqueous solutions were stored at 25° C. for 4 weeks while being exposed to sunlight. A measurement was made of the contents of the salts with resort to HPLC under the same conditions as in the chemical stability test.

CCOC(=O)C1=C(COCCN)NC(C)=C(C(=O)OC)C1c1ccccc1Cl (stereo not shown) [Hydrochloride, Amlodipine Hydrochloride]
Content (HPLC): 99.0%
